Data on eight targets can be found in the supplement of paper PMC12067093, “Discovery and optimisation of a covalent ligand for TRIM25 and its application to targeted protein ubiquitination” (Chemical Science, 2025).

The chains behind the UniProt entries cited, without tags or fusion partners. Where a name states a change or a piece, a line headed by the entry shows the natural chain unless it says otherwise.
UniProt P09543: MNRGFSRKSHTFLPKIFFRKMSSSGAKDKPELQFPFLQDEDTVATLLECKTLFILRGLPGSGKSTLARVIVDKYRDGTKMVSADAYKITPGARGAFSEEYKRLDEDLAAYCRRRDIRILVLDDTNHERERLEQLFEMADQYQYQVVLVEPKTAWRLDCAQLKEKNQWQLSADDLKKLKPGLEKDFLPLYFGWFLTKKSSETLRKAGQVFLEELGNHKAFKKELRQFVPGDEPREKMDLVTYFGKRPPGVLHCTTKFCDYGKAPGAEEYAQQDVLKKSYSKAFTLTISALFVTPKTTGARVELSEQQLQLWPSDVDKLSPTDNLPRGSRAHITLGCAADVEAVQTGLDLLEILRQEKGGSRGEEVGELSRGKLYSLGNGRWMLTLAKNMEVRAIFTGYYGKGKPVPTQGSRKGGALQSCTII
UniProt Q9Y678: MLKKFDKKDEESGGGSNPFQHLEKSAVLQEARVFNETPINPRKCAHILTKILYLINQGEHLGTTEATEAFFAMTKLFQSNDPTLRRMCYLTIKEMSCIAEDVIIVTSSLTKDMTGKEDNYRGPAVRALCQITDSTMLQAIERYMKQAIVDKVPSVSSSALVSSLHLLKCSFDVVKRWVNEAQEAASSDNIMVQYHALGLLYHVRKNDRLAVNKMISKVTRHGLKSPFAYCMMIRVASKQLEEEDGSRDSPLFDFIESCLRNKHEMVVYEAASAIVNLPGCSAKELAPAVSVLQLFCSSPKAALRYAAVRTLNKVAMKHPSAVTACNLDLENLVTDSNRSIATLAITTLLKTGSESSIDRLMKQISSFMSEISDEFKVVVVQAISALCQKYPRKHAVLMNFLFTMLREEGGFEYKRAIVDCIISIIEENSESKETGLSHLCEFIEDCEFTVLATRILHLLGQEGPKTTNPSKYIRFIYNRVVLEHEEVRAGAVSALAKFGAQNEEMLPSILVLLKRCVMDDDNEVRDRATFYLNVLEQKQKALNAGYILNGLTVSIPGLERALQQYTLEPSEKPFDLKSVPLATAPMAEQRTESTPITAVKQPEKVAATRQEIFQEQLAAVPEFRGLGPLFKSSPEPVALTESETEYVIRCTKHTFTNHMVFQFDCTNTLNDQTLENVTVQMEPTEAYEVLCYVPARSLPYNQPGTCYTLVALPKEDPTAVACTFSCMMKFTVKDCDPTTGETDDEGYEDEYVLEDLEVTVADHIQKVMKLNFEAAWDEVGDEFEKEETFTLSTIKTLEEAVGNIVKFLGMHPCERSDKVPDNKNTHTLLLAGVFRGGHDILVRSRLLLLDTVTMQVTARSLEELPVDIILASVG
UniProt Q9UP83: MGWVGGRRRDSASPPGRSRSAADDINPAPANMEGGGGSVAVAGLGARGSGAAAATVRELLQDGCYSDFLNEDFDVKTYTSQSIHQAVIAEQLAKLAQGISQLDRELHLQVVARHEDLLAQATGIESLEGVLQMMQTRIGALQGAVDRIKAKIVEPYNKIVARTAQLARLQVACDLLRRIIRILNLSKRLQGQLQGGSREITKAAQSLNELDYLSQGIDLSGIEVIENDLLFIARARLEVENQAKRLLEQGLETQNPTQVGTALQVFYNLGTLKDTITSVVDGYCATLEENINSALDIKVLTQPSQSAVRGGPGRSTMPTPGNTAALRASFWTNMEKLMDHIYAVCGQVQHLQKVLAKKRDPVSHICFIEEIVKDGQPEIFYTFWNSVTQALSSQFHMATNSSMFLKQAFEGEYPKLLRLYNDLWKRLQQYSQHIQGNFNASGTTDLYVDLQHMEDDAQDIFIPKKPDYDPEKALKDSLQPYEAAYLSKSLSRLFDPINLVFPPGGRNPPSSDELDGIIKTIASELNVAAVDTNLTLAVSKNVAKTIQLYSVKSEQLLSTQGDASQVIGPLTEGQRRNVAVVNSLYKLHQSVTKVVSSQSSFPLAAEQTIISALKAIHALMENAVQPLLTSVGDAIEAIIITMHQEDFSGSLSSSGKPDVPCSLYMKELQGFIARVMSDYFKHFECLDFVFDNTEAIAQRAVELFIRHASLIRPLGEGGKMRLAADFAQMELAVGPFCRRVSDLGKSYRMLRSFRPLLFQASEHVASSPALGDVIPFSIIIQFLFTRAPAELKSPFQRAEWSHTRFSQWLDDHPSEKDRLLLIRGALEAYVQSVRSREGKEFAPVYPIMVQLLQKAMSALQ
UniProt Q7L5N1: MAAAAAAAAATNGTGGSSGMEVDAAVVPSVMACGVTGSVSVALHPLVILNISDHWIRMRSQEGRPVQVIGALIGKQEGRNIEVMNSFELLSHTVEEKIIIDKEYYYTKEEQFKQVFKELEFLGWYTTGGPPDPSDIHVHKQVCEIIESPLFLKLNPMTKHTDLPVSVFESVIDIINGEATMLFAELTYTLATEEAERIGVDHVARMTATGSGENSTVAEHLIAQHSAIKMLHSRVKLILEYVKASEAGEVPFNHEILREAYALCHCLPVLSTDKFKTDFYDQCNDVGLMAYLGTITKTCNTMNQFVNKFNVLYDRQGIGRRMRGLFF
UniProt Q9UBF2: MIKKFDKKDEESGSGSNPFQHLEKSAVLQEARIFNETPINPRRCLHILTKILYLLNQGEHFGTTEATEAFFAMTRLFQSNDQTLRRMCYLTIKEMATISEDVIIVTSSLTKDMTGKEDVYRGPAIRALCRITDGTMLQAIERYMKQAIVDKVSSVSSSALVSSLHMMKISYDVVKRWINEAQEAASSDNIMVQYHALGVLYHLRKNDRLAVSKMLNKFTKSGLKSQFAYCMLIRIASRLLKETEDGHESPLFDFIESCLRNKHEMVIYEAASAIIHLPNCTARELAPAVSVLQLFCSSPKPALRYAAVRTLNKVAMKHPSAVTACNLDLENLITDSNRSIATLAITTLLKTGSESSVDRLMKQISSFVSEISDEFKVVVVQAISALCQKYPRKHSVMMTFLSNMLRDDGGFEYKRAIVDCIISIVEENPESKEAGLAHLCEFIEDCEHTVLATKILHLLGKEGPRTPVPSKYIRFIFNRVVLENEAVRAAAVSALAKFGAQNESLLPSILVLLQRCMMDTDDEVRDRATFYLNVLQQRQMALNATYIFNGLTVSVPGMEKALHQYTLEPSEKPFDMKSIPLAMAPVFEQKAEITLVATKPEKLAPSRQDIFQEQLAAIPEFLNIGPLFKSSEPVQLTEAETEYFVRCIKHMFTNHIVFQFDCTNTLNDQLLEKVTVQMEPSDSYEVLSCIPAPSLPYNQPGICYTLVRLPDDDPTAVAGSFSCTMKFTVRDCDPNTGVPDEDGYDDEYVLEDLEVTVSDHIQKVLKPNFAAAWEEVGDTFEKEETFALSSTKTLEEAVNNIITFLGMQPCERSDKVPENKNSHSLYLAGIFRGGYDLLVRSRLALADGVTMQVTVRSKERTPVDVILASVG
UniProt Q9Y2B0: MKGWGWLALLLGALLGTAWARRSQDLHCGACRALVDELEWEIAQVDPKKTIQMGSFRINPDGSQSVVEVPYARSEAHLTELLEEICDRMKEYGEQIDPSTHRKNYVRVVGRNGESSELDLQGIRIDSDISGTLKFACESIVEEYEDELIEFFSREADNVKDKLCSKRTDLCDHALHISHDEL

Compound in the experiment: CC1Cc2ccccc2N1C(=O)C1CCCN(C1)C(=O)CCl (mixture of isomers) [TRIM25 ligand 11 (diastereomer mixture)]
Description: probe-labelled cysteine peptide fold change vs DMSO (competition) (log2 fold change); higher = less target engagement (more negative = stronger competition). Conditions: THP-1, incubation time: 4 h.

Some of the results follow.
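Further: competitive chemoproteomic profiling in live THP-1 cells with an iodoacetamide desthiobiotin (IA-DTB) probe, comparing probe-labelled peptide intensities in compound-treated cells against DMSO-treated controls.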

Turning to “CNP_P09543_335_AHITLGCAADVEAVQTGLDLLEILR (UniProt P09543)”, the “probe-labelled cysteine peptide fold change” value by setting is: (10 µM) -0.305; (50 µM) -0.113.

Turning to “COPG1_Q9Y678_230_SPFAYCMMIR (UniProt Q9Y678)”, the “probe-labelled cysteine peptide fold change” value is 0.0784 (10 µM) and -0.0231 (50 µM).

As for “COG5_Q9UP83_284_DTITSVVDGYCATLEENINSALDIK (UniProt Q9UP83)”, the “probe-labelled cysteine peptide fold change” value was 0.0677 (10 µM) and -0.0375 (50 µM).

Take “COPG1_Q9Y678_813_FLGMHPCER (UniProt Q9Y678)”: the “probe-labelled cysteine peptide fold change” value reads like this: (10 µM) 0.0207; (50 µM) -0.0381.

On to “COPG1_Q9Y678_280_NKHEMVVYEAASAIVNLPGCSAK (UniProt Q9Y678)”, for which the “probe-labelled cysteine peptide fold change” value was -0.048 (10 µM) and 0.102 (50 µM).

For “COPS6_Q7L5N1_264_EAYALCHCLPVLSTDK (UniProt Q7L5N1)”, the “probe-labelled cysteine peptide fold change” value (10 µM) came to 0.117 and the “probe-labelled cysteine peptide fold change” value (50 µM) is 0.164.

As for “COPG2_Q9UBF2_387_VVVVQAISALCQK (UniProt Q9UBF2)”, the “probe-labelled cysteine peptide fold change” value runs as follows: (10 µM) 0.0809; (50 µM) 0.204.

In the case of “CNPY2_Q9Y2B0_86_SEAHLTELLEEICDR (UniProt Q9Y2B0)”, the “probe-labelled cysteine peptide fold change” value (10 µM) was -0.0385 and the “probe-labelled cysteine peptide fold change” value (50 µM) worked out at 0.0886.
